Data from publication PMC5996148.
The list shows a part of the results. For some assays here: Construct or isoform of the protein are uncertain.

Protein sequences, listed by entry. Tags and fused reporters are not part of them. Lines headed by an entry give the natural chain unless they say otherwise; changes in a name come on top.
UniProt P54578: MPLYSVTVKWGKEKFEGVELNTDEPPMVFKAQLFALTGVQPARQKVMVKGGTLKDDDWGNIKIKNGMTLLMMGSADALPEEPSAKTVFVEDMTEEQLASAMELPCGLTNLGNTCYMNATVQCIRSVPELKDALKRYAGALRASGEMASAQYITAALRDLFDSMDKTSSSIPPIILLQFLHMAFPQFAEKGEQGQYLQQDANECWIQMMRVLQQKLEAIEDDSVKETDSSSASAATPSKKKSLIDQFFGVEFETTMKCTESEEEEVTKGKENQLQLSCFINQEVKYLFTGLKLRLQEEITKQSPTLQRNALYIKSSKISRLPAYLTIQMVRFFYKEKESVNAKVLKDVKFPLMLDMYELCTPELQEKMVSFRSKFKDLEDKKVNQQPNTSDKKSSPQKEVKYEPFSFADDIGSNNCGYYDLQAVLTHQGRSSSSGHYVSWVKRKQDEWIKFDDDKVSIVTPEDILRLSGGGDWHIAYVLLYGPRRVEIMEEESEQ

How the values were obtained:
Assay in all cases: protein microarray (ProtoArray v5.0), streptavidin-Alexa Fluor 647
Settings in all cases: 3'-biotin; 20 mM Tris (pH 7.5), 5 mM MgCl2, 100 mM KCl, 0.1% Tween-20, A/T-rich and random oligonucleotide blockers; temperature not stated; high values mean tight binding
USE1 (human) = tested on: USE1 (human)
USH1C (human) = tested on: USH1C (human)
USP12 (human) = tested on: USP12 (human)
USP14 = USP14 (UniProt P54578)
USP15 (human) = tested on: USP15 (human)
USP3 (human) = tested on: USP3 (human)
USP4 (human) = tested on: USP4 (human)
USP47 (human) = tested on: USP47 (human)
USP48 (human) = tested on: USP48 (human)
USP5 = target: T1, USP5 (UniProt P45974)
T1 sequence: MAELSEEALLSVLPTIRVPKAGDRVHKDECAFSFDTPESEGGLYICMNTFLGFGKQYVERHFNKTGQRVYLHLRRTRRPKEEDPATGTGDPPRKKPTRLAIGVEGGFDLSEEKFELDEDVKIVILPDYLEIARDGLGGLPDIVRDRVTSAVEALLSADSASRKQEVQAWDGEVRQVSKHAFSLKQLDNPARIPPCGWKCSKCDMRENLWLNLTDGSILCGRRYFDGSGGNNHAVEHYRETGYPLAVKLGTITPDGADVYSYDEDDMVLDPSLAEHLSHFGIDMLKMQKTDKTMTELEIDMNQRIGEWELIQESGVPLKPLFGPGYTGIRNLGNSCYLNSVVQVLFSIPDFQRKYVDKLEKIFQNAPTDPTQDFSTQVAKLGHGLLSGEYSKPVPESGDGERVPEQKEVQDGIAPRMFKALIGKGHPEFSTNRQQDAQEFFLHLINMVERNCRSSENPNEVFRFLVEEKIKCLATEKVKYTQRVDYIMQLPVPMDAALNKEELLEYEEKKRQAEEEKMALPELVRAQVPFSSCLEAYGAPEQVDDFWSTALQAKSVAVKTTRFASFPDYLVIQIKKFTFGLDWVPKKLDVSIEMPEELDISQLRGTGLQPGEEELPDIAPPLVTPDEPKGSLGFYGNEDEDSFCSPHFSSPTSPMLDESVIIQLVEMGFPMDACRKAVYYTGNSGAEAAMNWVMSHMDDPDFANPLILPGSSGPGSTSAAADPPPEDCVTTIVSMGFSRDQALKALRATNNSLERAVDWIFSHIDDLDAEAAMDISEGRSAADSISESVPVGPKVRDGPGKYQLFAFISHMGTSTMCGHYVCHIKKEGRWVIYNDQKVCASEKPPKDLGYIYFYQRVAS

USP53 (human) = tested on: USP53 (human)
[1] = tested on: UV excision repair protein RAD23 homolog A (human)
UXS1 (human) = tested on: UXS1 (human)
Ubiquilin-4 (human) = tested on: Ubiquilin-4 (human)
[2] = tested on: Ubiquilin-like protein (human)
[3] = tested on: Ubiquinone biosynthesis protein COQ9, mitochondrial (human)
[4] = tested on: Ubiquitin carboxyl-terminal hydrolase 24 (human)
[5] = tested on: Ubiquitin-conjugating enzyme E2 Z (human)
[6] = tested on: Uncharacterized aarF domain-containing protein kinase 5 (human)
[7] = tested on: Uncharacterized protein C11orf48 (human)

With “GGGAGGCTGAGGCAGG [G4-1 biotinylated (PQS2)]” as the sequence, how does the binding signal (USE1 (human)) read?
The binding signal was -0.339 z-score.

And the binding signal (USH1C (human))?
Its binding signal is -0.264 z-score.

What about the binding signal (USP12 (human)) of the same sequence?
The binding signal was -0.281 z-score.

What about the binding signal (USP14) of the same sequence?
The binding signal was -0.286 z-score.

And the binding signal (USP15 (human))?
Its binding signal is -0.334 z-score.

And the binding signal (USP3 (human))?
The binding signal was -0.311 z-score.

And the binding signal (USP4 (human))?
Its binding signal is -0.331 z-score.

And the binding signal (USP47 (human))?
The binding signal was -0.331 z-score.

And the binding signal (USP48 (human))?
The binding signal was -0.356 z-score.

And the binding signal (USP5)?
Its binding signal is -0.331 z-score.

And the binding signal (USP53 (human))?
The binding signal was -0.309 z-score.

What about the binding signal [1] of the same sequence?
Its binding signal is -0.302 z-score.

What about the binding signal (UXS1 (human)) of the same sequence?
The binding signal was -0.25 z-score.

What about the binding signal (Ubiquilin-4 (human)) of the same sequence?
Its binding signal is -0.348 z-score.

And the binding signal [2]?
The binding signal was -0.307 z-score.

And the binding signal [3]?
Its binding signal is -0.319 z-score.

What about the binding signal [4] of the same sequence?
The binding signal was -0.338 z-score.

What about the binding signal [5] of the same sequence?
The binding signal was -0.305 z-score.

What about the binding signal [6] of the same sequence?
The binding signal was -0.335 z-score.

What about the binding signal [7] of the same sequence?
The binding signal was -0.337 z-score.
